## Microarray screen: hit calls

Source: the ROBIN nucleic acid binder screens (doi:10.1002/anie.202211358).

Oligonucleotides screened, 5′ to 3′:
SAM-II: SAM-II riboswitch RNA pseudoknot, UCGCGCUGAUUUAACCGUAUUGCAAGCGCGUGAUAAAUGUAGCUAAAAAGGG. About 21,000 compounds screened, about 200 hits.
PreQ1: PreQ1 riboswitch RNA pseudoknot, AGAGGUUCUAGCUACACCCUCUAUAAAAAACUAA. From B. subtilis. About 24,000 compounds screened, about 170 hits.
TPP: TPP riboswitch RNA three-way junction, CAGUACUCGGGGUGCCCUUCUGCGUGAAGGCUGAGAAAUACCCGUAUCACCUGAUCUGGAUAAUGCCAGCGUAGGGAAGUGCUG. About 24,000 compounds screened, about 160 hits.

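The test is a small-molecule microarray: each compound is printed twice on a reactive slide, and binding shows as fluorescence of the labelled oligonucleotide after washing. The data file lists only calls. An earlier report of the laboratory on the PreQ1, TPP and SAM-II riboswitches (doi:10.1038/s41467-019-09493-3) used 1 µM RNA for 2 h and required a mean Z-score above 3 (spot signal-to-noise against the whole library), a score well above that on a control array, and duplicate spots agreeing (coefficient of variation under 100); it then also set aside compounds that hit other targets, which this list keeps. The cut-offs behind this list may differ. A missing hit is not proof of no binding, and a hit is not a measured affinity.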
“1” means called a hit, “0” means screened and not called a hit.
This is an unselected part of the compounds tested.
A dash means that no call is listed here.

SMILES	SAM-II	PreQ1	TPP
Cc1cnc(CNC(=O)c2c(=O)c3ccc(N4CCCN(C)CC4)nc3n3c2sc2ccccc23)cn1	0	0	0
CCOCCn1nc(C)cc1C(=O)N[C@H]1CC[C@H]1N	0	0	0
C=CCNc1nc(-c2ccc(Cl)cc2)nc2ccccc12	0	0	0
O=S(=O)(c1ccccc1)c1cnc2ccc(F)cc2c1Nc1ccc2c(c1)OCO2	-	0	0
C=CCN1CC(=O)C(c2nc3ccccc3[nH]2)=C1N	-	0	0
O=C(O)CCCCCNc1ncnc2c1oc1ccccc12	0	0	0
Cc1ccc(Nc2c(-c3ccc(Cl)cc3)nc3[nH]cnn23)cc1	0	0	0
CCCNc1c(NS(=O)(=O)c2cccc(Cl)c2)c(=O)oc2ccccc12	0	0	0
N#CC1=C(N)OC2=C(C(=O)c3ccccc3C2=O)C1c1ccc(O)cc1 (centres undefined)	0	0	0
N[C@@H]1CC[C@H](C(=O)NCc2ccc3c(c2)CCCC3)C1	0	0	0
FC(F)(F)C1CN(Cc2cc3n(n2)CCCNC3)CCO1 (centres undefined)	0	0	0
O=C(CCC1CCN(C(=O)C2C=CCN2)CC1)N1CCc2ccccc2C1 (centres undefined)	0	0	0
CCn1c(C(=O)O)c(CNCc2cccc(OC)c2)c2ccc(C)cc21	-	0	0
Clc1ccc(CNc2ncccc2-c2nc(-c3ccccc3)no2)cc1	-	0	0
CC1CN(Cc2nc3c(c(=O)n(C)c(=O)n3C)n2CCCO)CC(C)O1 (centres undefined)	0	0	0
CCOC(=O)N1CCC(N2C(=O)c3ccccc3C2Nc2ccccc2OCC)CC1 (centres undefined)	0	0	0
Cc1ccc(NC(c2ccccc2)c2nnc(-c3ccccc3F)o2)cc1 (centres undefined)	0	0	0
Cc1cc(Nc2cc(Cl)ccc2C)n2nc(-c3cccnc3)nc2n1	-	0	0
COc1ccc2c(CNCc3ccccc3Cl)c(C(=O)O)n(C)c2c1	-	0	0
CCOc1ccc(CNc2ccc3c(c2)ncn3C)cc1OC	0	0	0
COc1ccc2oc(C(=O)c3ccc(Cl)cc3)c(N)c2c1	0	0	0
CCCc1nc2ccccc2n1CC(O)COc1ccccc1C (centres undefined)	-	0	0
Nc1nn(-c2ccccc2)nc1C(=O)OCc1ccccc1F	0	0	0
Cc1nc(NCCc2ccccc2)cc(-c2ccccc2)n1	-	0	0
Cc1cc(NCCCN2CCOCC2)n2nc(C(F)(F)F)c(-c3ccc(Cl)cc3)c2n1	-	0	0
NCC(=O)N1CCC(n2nccc2NC(=O)Nc2ccccc2Cl)CC1	0	0	0
CN1CC(=O)N(CC(=O)N2CCC3(CC2)[C@H](O)C[C@@H]3OCCO)C1=O	0	0	0
Cc1ccc(OCC(O)Cn2c(C3CC(=O)N(Cc4ccccc4)C3)nc3ccccc32)c(C)c1 (centres undefined)	-	0	0
Cl.OCCNc1nc2ccccc2n1CCN1CCCCC1	0	0	0
Cc1ccc(S(=O)(=O)Nc2nc3ccccc3nc2Nc2ccc3c(c2)n(C)c(=O)n3C)cc1	0	0	0
CCOC(=O)C1=C(C)OC(N)=C(C(=O)OCC)C12C(=O)Nc1ccccc12 (centres undefined)	0	0	0
CC(O)(C#Cc1ccc2c(c1)N(c1nc(N)ncc1Cl)CC2)c1nccs1 (centres undefined)	0	0	0
Cc1nc2ccc(C(=O)N(CCCO)Cc3ccc(Cl)cc3)cc2nc1C	0	0	0
Cc1ccc(S(=O)(=O)NCC(Nc2cc(C)ccc2C)c2ccccc2)cc1 (centres undefined)	-	0	0
CCc1ccc2nc(C)cc(C(=O)NCC(O)c3cccc(O)c3)c2c1 (centres undefined)	0	0	0
COc1ccc(-c2c(C)nn3c(N)c(-c4ccccc4)cnc23)cc1OC	0	0	0
O=C(CN1CCOc2ccccc2C1)N[C@@H]1c2ccccc2C[C@@H]1O	0	0	0
COc1ccc2c(CNCc3ccccc3)c(C(=O)O)[nH]c2c1	-	0	0
COc1ccc(CCNCC2CCOC(C)(C)C2)cc1OC (centres undefined)	-	0	0
C[C@@H]1CN(C2CCN(C(=O)[C@@H](N)Cc3ccc(O)cc3)CC2)C[C@H](C)O1	0	0	0
Cc1ccc(Cl)cc1Nc1nc2ccccc2c2nncn12	0	0	0
CN1CCC2(O)OCCCC2C1 (centres undefined)	0	0	0
O=C(CNc1ccc(S(=O)(=O)C(F)(F)F)cc1[N+](=O)[O-])N1CCN(c2ccccc2)CC1	0	0	0
CCOC(=O)c1cnn(Cc2ccccc2Cl)c1N	0	0	0
Cc1cccc2cc3cccc(C)c3nc12	0	0	0
N#CC1=C(N)Oc2c(c(=O)oc3ccccc23)C1C1CC=CCC1 (centres undefined)	0	0	0
CCCc1cc(N2CCC(CN)C2)n2nccc2n1 (centres undefined)	0	0	0
N[C@@H]1CC[C@@H]1NC(=O)CCOc1ccccc1	0	0	0
Cc1cc(C2C(C#N)=C(N)N(c3cccnc3)C3=C2C(=O)CCC3)c(C)s1 (centres undefined)	0	0	0
Cc1cccc(C)c1NC1c2ccccc2C(=O)N1c1ccc(Cl)cn1 (centres undefined)	0	0	0
Cc1nn(C)cc1CNC(=O)c1cn(CCC2CCCCN2)nn1 (centres undefined)	0	0	0
FC(F)(F)c1cccc(-c2ccc(CNCCCN3CCOCC3)o2)c1	-	0	0
Cc1cc(NCc2ccccn2)n2nc(C(F)(F)F)c(-c3ccccc3Cl)c2n1	-	0	0
OC1COCCN(C2CCN(c3ncc4ccc(F)cc4n3)CC2)C1 (centres undefined)	0	0	0
Cc1ccc(Nc2nc(-c3ccncc3)cs2)cc1C	0	0	0
OC1(CNCCSc2cnn[nH]2)CNCCOC1 (centres undefined)	0	0	0
C=CCNc1nc(C2(C)CC3(CC(COCC(C)C)OC3=O)C(=O)O2)cs1 (centres undefined)	0	0	0
Cc1ccsc1CN(CCO)C(=O)CCCn1cnc2ccccc2c1=O	0	0	0
CN1CCCN(CCC(=O)N2CCC3(CC2)OCCCC3O)CC1 (centres undefined)	0	0	0
Cc1nc2sc(C(=O)N3CCc4ccccc4C3)c(N)c2c(C)c1C	0	0	0
NC(=O)[C@H]1CCCN1C(=O)c1cccc(CC2CCNCC2)c1	0	0	0

The last 8 entries again:

| SMILES | SAM-II | PreQ1 | TPP |
|---|---|---|---|
| `OC1COCCN(C2CCN(c3ncc4ccc(F)cc4n3)CC2)C1` (centres undefined) | 0 | 0 | 0 |
| `Cc1ccc(Nc2nc(-c3ccncc3)cs2)cc1C` | 0 | 0 | 0 |
| `OC1(CNCCSc2cnn[nH]2)CNCCOC1` (centres undefined) | 0 | 0 | 0 |
| `C=CCNc1nc(C2(C)CC3(CC(COCC(C)C)OC3=O)C(=O)O2)cs1` (centres undefined) | 0 | 0 | 0 |
| `Cc1ccsc1CN(CCO)C(=O)CCCn1cnc2ccccc2c1=O` | 0 | 0 | 0 |
| `CN1CCCN(CCC(=O)N2CCC3(CC2)OCCCC3O)CC1` (centres undefined) | 0 | 0 | 0 |
| `Cc1nc2sc(C(=O)N3CCc4ccccc4C3)c(N)c2c(C)c1C` | 0 | 0 | 0 |
| `NC(=O)[C@H]1CCCN1C(=O)c1cccc(CC2CCNCC2)c1` | 0 | 0 | 0 |